Data: PubChem BioAssay AID493014 (National Center for Advancing Translational Sciences (NCATS), 2011)
Some of the results follow. Further columns of the screen follow, without active or inactive calls. Compounds called inactive in the main read-out are mostly missing here. The note in brackets gives the kind of curve behind each potency; many fits are weak.

Test: qHTS Assay to Find Inhibitors of Chronic Active B-Cell Receptor Signaling
Conditions: ABC-DLBCL IkBa-CBG/CBR reporter, luminescence ratio (green luciferase fused to IkBa over red control in TMD8 lymphoma cells), 4 h
Outline: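 TMD8 ABC-DLBCL cells carrying doxycycline-inducible green luciferase fused to IkappaBalpha plus unfused red luciferase were exposed to compounds (up to 46 uM) for 4 hrs at 37C. Activity came from the overlap-corrected green/red luminescence ratio.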

[1] = measured here: IkBa-CBG green luminescence
[2] = measured here: CBR red luminescence, cell number

| Structure (SMILES) | AC50 [1] | AC50 [2] |
| --- | --- | --- |
| Cc1cc(C)n(-c2nc3ccccc3c(=O)n2OCC(=O)OCc2ccccc2)n1 | 15.8 µM [falling, single point] |  |
| COc1ccc(C(=O)NC(C)(C)C)cc1S(=O)(=O)N1CCCC1 |  | 2.06 µM [falling, single point] |
| Cc1ccc(N=C2NC(=O)S/C2=C\c2ccco2)cc1 |  | 14.6 µM [falling, partial curve] |
| COc1ccccc1C(CNC(=O)CSc1ccc2ccccc2c1)N(C)C (stereo not drawn) |  | 11.2 µM [falling, single point] |
| COc1ccc(NS(=O)(=O)c2ccc(C)c(NC(=O)CNC(=O)c3ccco3)c2)cc1 |  | 2.31 µM [rising, full curve, poor fit] |
| O=C(NCc1ccco1)c1cc(-c2ccc(F)cc2)on1 |  | 3.55 µM [falling, full curve] |
| CCCC(=O)Nc1ccc(OCC(=O)OC)cc1 |  | 32.6 µM [rising, partial curve, poor fit] |
| O=[N+]([O-])c1ccc(C[n+]2cccc3ccc4cccnc4c32)cc1 |  | 14.1 µM [falling, partial curve, poor fit] |
| COc1cccc(COCCN2CCN(S(=O)(=O)c3ccc(C)cc3)CCC2=O)c1 |  | 25.9 µM [rising, partial curve, poor fit] |
| Cc1ccc2[nH]c(C(F)(F)F)cc(=O)c2c1 |  | 8.91 µM [falling, partial curve, poor fit] |
| N#CCC(=O)Nc1ccc(C(=O)Nc2cccnc2)cc1 |  | 12.6 µM [falling, single point] |
| CCCCOc1ccccc1NC(=O)Cn1c(-c2nonc2N)nc2ccccc21 | 6.51 µM [falling, partial curve] | 8.2 µM [rising, partial curve] |
| O=C(NCC1CCCCC1)C1(CC2CC(c3ccc(Cl)cc3)=NO2)CCNCC1 (stereo not drawn) |  | 17.8 µM [falling, single point] |
| CCCCOc1ccc(-c2ncc([N+](=O)[O-])cn2)cc1 |  | 28.2 µM [rising, single point] |
| O=C(CCCc1ccccc1)c1ccccc1 |  | 0.501 µM [rising, full curve, poor fit] |
| O=C(NCc1cccc(Cl)c1)NCc1cccc(Cl)c1 |  | 16.4 µM [rising, partial curve, poor fit] |
| CCC(C)(C)c1ccc(OCCCC[n+]2cccc(C)c2C)c(C(C)(C)CC)c1 |  | 35.5 µM [falling, single point] |
| CC(=O)NC/C(C)=N\Nc1ccc([N+](=O)[O-])cc1 |  | 7.94 µM [rising, partial curve, poor fit] |
| CCOC(=O)NCc1ccc2[nH]c(C)cc2c1 |  | 3.98 µM [rising, full curve, poor fit] |

| Structure (SMILES) | AC50 [1] | AC50 [2] |
| --- | --- | --- |
| C=CCOc1cccc(C(=O)N2CCCC(CNS(=O)(=O)c3cccs3)C2)c1 (stereo not drawn) |  | 14.1 µM [rising, partial curve] |
| Cc1ccc(C(=O)Nc2nc(-c3ccccc3)c(-c3ccccc3)o2)cc1 |  | 11.6 µM [falling, partial curve, poor fit] |
| COc1ccc(C[C@H]2CN3C(=NC[C@H]3Cc3ccccc3)N2CCNC(=O)c2ccc(C)c(Br)c2)cc1 |  | 20 µM [falling, single point] |
| CCOc1ncccc1C(=O)OCc1cc(=O)oc2c(C)c(C)ccc12 |  | 0.631 µM [falling, full curve] |
| COc1ccc(C(=O)COC(=O)C2CCN(c3ccc(C(F)(F)F)cn3)CC2)c(OC)c1 |  | 23.1 µM [rising, single point] |
| CCO/C=C1\C(=O)N(c2ccc(OCC)cc2)C(=O)c2ccccc21 |  | 5.01 µM [rising, partial curve, poor fit] |
| CCCc1cc(=O)n2[nH]c(-c3cc(OC)c(OC)c(OC)c3)nc2n1 | 32.6 µM [falling, partial curve, poor fit] | 23.1 µM [rising, single point] |
| Cc1nn(CCC#N)c(N)c1C1(O)C(=O)Nc2c(Cl)cc(Cl)cc21 (stereo not drawn) | 15.8 µM [falling, single point] | 20 µM [rising, partial curve, poor fit] |
| COc1cccc(CCNc2ncnc3c2nnn3C)c1 |  | 3.16 µM [falling, full curve, poor fit] |
| COc1ccc2c(c1)OC[C@H]1[C@H]2N2C(=O)c3cc(OC)ccc3NC(=O)[C@@]2(C)[C@H]1c1ccccc1 | 2.91 µM [rising, full curve, poor fit] | 2.59 µM [falling, full curve] |
| O=C(COC(=O)c1cccc(NS(=O)(=O)c2ccc(F)c(F)c2)c1)NC(=O)NC1CCCCC1 |  | 20.6 µM [falling, single point] |
| CSc1ncc2ncn(C3OC(CO)C(O)C3O)c2n1 (stereo not drawn) | 12.6 µM [rising, partial curve, poor fit] | 31.6 µM [falling, single point] |
| O=C(NCc1ccc2c(c1)OCO2)c1nn(-c2ccccc2)c(=O)c2ccccc12 |  | 4.11 µM [rising, partial curve, poor fit] |
| CCOC(=O)c1c(C)nc(C)c(C(=O)OCC)c1-c1ccc(OC)cc1 |  | 14.6 µM [rising, partial curve, poor fit] |
| N#CC1=C(Nc2ccccc2)SC=C(c2ccc(F)cc2)N=C1N1CCOCC1 |  | 3.98 µM [falling, single point] |
| Cc1cc2oc(C(=O)Nc3c(C)n(C)n(-c4ccccc4)c3=O)c(C)c2cc1Cl |  | 25.9 µM [falling, single point] |
| COc1cccc(Nc2nc(-c3sc(NC(=O)c4ccco4)nc3C)cs2)c1 |  | 14.1 µM [falling, single point] |
| O=C(Cc1csc(N2CCOCC2)n1)N/N=C/c1ccc(Cl)cc1Cl | 6.51 µM [rising, partial curve, poor fit] |  |
| COc1ccc2sc(N3C(=O)C4CC=C(C)CC4C3=O)nc2c1 (stereo not drawn) |  | 25.9 µM [falling, single point] |
